According to article PMC2709443:
No constants are given. Whether binding was seen depends on the method and setting. Binding seen in cells or lysates may run through a third protein. A yes stands for co-enrichment or nearness to the bait. Other partners may have been found. Where a sequence is shown, tags or fusion partners need not be part of it.

Amino acid sequences for entries named in this document (tags omitted). A change or cut given only in a name is not applied to a line headed by its entry.
UniProt Q9SYP1: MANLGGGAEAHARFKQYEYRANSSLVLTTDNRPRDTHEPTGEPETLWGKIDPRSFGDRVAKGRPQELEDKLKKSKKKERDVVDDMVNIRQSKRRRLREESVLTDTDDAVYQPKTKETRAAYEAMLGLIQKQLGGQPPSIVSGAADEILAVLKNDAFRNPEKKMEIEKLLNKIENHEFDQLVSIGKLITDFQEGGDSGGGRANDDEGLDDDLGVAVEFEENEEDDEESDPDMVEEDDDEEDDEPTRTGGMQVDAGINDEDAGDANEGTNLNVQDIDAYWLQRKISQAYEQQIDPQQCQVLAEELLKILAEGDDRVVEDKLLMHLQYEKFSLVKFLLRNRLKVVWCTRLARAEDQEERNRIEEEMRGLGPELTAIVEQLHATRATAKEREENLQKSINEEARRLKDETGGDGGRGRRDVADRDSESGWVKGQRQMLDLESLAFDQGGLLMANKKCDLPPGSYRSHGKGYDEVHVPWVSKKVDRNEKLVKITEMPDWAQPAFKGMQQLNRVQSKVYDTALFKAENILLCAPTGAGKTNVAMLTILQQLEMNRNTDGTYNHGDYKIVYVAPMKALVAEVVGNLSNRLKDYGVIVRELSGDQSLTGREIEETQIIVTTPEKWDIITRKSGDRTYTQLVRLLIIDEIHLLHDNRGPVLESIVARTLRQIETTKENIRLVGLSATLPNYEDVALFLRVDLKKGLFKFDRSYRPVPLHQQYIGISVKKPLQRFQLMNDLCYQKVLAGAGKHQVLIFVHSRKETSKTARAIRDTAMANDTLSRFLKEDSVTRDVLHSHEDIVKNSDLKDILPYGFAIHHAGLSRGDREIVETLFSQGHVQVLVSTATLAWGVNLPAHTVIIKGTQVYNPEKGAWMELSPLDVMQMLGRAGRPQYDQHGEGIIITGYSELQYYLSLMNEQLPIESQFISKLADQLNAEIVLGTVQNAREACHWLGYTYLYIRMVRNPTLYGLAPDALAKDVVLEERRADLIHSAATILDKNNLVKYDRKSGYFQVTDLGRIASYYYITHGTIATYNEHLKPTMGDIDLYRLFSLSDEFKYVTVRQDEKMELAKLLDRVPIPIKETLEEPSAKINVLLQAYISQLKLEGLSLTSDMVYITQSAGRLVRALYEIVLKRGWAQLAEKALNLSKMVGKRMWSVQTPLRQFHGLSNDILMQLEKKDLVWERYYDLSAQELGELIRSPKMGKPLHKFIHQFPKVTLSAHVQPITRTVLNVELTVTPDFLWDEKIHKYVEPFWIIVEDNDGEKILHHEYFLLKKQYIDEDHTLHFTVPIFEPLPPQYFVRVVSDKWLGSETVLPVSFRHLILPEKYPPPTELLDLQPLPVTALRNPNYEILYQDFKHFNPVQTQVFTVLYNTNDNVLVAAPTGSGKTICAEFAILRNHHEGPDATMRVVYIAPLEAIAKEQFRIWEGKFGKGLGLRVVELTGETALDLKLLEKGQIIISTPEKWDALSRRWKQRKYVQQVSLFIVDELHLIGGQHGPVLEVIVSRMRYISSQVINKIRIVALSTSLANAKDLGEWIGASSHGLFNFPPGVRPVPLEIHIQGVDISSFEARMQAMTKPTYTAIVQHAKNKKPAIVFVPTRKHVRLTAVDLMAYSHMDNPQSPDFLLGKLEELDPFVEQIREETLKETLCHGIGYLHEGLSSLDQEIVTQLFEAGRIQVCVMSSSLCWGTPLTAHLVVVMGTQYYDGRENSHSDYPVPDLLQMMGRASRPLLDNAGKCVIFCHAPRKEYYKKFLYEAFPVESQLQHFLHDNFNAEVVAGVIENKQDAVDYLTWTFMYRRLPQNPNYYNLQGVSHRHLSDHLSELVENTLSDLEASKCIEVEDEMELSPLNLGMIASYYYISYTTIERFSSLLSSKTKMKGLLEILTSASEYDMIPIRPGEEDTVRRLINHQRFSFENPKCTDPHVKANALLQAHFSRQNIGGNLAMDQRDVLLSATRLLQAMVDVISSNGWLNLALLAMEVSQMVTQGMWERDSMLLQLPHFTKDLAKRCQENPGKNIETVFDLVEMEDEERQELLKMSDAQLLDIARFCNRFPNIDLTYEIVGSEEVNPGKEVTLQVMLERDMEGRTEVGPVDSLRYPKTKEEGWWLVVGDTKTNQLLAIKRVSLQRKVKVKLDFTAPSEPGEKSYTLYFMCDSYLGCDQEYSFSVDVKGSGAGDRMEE
UniProt Q9SSD2: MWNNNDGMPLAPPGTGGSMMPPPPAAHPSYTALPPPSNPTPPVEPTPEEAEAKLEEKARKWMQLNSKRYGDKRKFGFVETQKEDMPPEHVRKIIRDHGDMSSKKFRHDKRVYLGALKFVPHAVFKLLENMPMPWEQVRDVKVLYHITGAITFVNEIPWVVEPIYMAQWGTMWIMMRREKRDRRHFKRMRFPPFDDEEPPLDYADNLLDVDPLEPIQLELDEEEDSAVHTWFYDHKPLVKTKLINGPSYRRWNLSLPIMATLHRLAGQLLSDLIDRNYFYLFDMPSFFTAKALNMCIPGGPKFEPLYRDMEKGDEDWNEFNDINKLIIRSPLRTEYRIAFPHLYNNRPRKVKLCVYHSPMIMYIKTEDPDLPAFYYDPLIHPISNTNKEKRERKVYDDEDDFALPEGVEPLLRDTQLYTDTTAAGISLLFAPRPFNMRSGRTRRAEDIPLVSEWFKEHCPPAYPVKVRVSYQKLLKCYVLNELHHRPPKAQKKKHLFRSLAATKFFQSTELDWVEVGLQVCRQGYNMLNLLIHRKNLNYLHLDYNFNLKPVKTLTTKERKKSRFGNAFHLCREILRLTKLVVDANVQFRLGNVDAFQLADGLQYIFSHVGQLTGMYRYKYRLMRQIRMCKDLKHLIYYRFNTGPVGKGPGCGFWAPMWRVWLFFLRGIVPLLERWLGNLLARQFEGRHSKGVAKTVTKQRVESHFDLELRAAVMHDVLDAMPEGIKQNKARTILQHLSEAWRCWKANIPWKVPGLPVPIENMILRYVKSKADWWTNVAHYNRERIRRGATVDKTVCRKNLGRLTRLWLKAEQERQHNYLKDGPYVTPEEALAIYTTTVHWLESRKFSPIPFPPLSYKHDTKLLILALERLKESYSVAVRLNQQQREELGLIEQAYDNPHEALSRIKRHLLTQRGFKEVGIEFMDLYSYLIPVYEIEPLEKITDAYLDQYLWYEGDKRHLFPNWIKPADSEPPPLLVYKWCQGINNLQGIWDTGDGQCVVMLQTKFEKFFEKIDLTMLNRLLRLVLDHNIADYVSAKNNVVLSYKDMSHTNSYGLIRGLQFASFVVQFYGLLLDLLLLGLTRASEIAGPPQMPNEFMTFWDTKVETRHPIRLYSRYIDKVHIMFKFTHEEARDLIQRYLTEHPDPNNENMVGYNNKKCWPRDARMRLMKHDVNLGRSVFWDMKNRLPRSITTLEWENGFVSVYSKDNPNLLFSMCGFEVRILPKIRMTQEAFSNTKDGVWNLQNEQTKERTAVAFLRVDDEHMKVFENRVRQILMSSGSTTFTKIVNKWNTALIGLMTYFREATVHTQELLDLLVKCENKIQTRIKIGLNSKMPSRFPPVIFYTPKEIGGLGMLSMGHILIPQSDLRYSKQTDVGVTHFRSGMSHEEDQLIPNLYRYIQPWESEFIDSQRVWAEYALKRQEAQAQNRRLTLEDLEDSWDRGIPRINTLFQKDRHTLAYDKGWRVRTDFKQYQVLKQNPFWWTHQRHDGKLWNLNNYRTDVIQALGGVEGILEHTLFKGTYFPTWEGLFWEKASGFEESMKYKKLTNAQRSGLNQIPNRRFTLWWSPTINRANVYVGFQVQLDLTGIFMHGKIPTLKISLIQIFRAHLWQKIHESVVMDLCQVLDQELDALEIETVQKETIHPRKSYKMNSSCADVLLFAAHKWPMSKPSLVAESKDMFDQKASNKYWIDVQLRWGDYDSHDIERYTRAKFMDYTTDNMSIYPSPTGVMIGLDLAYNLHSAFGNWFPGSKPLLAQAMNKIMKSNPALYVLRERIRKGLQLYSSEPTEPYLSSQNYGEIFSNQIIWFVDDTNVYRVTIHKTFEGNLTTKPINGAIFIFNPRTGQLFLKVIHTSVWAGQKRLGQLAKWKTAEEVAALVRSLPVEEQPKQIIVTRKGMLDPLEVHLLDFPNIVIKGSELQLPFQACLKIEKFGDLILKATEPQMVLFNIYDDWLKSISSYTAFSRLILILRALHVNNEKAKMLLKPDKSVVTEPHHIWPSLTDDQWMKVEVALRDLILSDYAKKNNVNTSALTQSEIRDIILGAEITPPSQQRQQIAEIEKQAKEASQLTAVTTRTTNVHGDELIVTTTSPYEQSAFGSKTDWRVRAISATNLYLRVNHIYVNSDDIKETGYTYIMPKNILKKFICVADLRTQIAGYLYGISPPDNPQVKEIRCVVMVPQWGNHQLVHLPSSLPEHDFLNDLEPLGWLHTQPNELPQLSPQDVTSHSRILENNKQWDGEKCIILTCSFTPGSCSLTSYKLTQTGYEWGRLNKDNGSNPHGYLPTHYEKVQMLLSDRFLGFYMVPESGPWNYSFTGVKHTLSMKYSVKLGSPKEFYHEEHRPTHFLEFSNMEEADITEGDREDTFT
UniProt Q9LS97: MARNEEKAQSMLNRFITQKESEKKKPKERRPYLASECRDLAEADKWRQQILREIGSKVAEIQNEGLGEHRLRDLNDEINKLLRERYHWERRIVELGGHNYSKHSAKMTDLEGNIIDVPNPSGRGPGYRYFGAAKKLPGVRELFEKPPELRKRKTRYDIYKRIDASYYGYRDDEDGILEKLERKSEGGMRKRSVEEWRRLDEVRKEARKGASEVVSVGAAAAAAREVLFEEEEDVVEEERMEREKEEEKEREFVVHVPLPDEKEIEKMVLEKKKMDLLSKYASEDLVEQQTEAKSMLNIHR
UniProt Q9LKU3: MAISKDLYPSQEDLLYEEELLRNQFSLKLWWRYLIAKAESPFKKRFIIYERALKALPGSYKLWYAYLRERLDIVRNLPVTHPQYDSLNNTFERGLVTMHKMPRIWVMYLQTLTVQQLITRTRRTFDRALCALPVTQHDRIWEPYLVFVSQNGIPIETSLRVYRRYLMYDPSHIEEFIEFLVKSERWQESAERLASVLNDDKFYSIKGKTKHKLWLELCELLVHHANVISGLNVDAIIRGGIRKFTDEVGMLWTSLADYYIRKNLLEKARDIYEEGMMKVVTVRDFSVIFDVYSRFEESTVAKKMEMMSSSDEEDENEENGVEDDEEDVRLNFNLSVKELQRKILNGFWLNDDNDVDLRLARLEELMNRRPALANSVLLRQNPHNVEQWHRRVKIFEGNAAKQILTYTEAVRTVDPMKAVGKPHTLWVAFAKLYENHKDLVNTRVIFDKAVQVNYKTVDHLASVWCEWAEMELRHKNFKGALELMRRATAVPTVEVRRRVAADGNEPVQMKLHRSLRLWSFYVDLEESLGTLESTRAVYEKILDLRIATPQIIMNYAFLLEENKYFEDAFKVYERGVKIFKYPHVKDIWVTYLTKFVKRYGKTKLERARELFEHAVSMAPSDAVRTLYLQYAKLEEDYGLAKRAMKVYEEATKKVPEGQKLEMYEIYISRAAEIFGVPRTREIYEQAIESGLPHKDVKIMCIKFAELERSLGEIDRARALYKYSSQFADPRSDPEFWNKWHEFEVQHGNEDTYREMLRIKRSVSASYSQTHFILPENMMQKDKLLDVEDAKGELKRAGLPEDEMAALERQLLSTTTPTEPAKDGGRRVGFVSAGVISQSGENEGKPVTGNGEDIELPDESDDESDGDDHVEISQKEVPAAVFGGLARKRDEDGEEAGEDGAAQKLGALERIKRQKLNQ

Target: T1, MOS4-HA (full-length MOS4 with a C-terminal triple hemagglutinin tag, native promoter) (Arabidopsis thaliana) (UniProt Q949S9)
T1 sequence: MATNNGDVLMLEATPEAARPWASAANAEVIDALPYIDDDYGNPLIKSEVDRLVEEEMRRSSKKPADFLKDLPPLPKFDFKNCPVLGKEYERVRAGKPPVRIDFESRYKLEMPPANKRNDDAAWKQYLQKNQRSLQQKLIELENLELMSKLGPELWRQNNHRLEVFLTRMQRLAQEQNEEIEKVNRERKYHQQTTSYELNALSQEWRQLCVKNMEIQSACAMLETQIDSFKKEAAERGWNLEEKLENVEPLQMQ
Test: affinity purification with mass spectrometry; MOS4-HA precipitated with anti-HA microbeads from dialysed nuclear extract (buffer NE-3: 20 mM HEPES-KOH pH 7.9, 100 mM KCl) of about 100 g leaf tissue of MOS4-HA mos4-1 plants, on ice; eluate on 12% SDS-PAGE, silver-stained, lane cut into eight pieces, MS; Col-0 as control

## EMB1507; DEAD-box helicase (AT1G20960) (from UniProt Q9SYP1 1-2171)
  binding: binds

## EMB2765; helicase (AT2G38770) (from UniProt F4ITX4)
  binding: binds

## SUS2/EMB177; embryogenesis (AT1G80070) (from UniProt Q9SSD2 1-2359)
  binding: binds

## putative splicing factor similar to RCN1; PP2A regulator (AT5G64270) (from UniProt Q9FMF9)
  binding: binds

## similar to two coiled coil domains of eukaryotic ori (AT3G18790) (from UniProt Q9LS97)
  binding: binds

## transcription-coupled DNA repair-related; RNA processing (AT5G28740) (from UniProt Q9LKU3)
  binding: binds

B1: AtCDC5/MAC1; R2-R3 Myb transcription factor (protein, UniProt P92948 1-844)
chain: MRIMIKGGVWKNTEDEILKAAVMKYGKNQWARISSLLVRKSAKQCKARWYEWLDPSIKKTEWTREEDEKLLHLAKLLPTQWRTIAPIVGRTPSQCLERYEKLLDAACTKDENYDAADDPRKLRPGEIDPNPEAKPARPDPVDMDEDEKEMLSEARARLANTRGKKAKRKAREKQLEEARRLASLQKRRELKAAGIDGRHRKRKRKGIDYNAEIPFEKRAPAGFYDTADEDRPADQVKFPTTIEELEGKRRADVEAHLRKQDVARNKIAQRQDAPAAILQANKLNDPEVVRKRSKLMLPPPQISDHELEEIAKMGYASDLLAENEELTEGSAATRALLANYSQTPRQGMTPMRTPQRTPAGKGDAIMMEAENLARLRDSQTPLLGGENPELHPSDFTGVTPRKKEIQTPNPMLTPSMTPGGAGLTPRIGLTPSRDGSSFSMTPKGTPFRDELHINEDMDMHESAKLERQRREEARRSLRSGLTGLPQPKNEYQIVAQPPPEESEEPEEKIEEDMSDRIAREKAEEEARQQALLKKRSKVLQRDLPRPPAASLAVIRNSLLSADGDKSSVVPPTPIEVADKMVREELLQLLEHDNAKYPLDDKAEKKKGAKNRTNRSASQVLAIDDFDENELQEADKMIKEEGKFLCVSMGHENKTLDDFVEAHNTCVNDLMYFPTRSAYELSSVAGNADKVAAFQEEMENVRKKMEEDEKKAEHMKAKYKTYTKGHERRAETVWTQIEATLKQAEIGGTEVECFKALKRQEEMAASFRKKNLQEEVIKQKETESKLQTRYGNMLAMVEKAEEIMVGFRAQALKKQEDVEDSHKLKEAKLATGEEEDIAIAMEASA
  binding: binds

B2: CLO/GFA1/MEE5; translation elongation; nucleic acid binding (AT1G06220) (protein, UniProt Q9LNC5 1-987)
chain: MESSLYDEFGNYVGPEIESDRDSDDEVEDEDLQDKHLEENGSDGEQGPGGSNGWITTINDVEMENQIVLPEDKKYYPTAEEVYGEDVETLVMDEDEQPLEQPIIKPVRDIRFEVGVKDQATYVSTQFLIGLMSNPALVRNVALVGHLQHGKTVFMDMLVEQTHHMSTFNAKNEKHMKYTDTRVDEQERNISIKAVPMSLVLEDSRSKSYLCNIMDTPGHVNFSDEMTASLRLADGAVLIVDAAEGVMVNTERAIRHAIQDHLPIVVVINKVDRLITELKLPPRDAYYKLRHTIEVINNHISAASTTAGDLPLIDPAAGNVCFASGTAGWSFTLQSFAKMYAKLHGVAMDVDKFASRLWGDVYYHSDTRVFKRSPPVGGGERAFVQFILEPLYKIYSQVIGEHKKSVETTLAELGVTLSNSAYKLNVRPLLRLACSSVFGSASGFTDMLVKHIPSPREAAARKVDHSYTGTKDSPIYESMVECDPSGPLMVNVTKLYPKSDTSVFDVFGRVYSGRLQTGQSVRVLGEGYSPEDEEDMTIKEVTKLWIYQARYRIPVSSAPPGSWVLIEGVDASIMKTATLCNASYDEDVYIFRALQFNTLPVVKTATEPLNPSELPKMVEGLRKISKSYPLAITKVEESGEHTILGTGELYLDSIMKDLRELYSEVEVKVADPVVSFCETVVESSSMKCFAETPNKKNKITMIAEPLDRGLAEDIENGVVSIDWNRKQLGDFFRTKYDWDLLAARSIWAFGPDKQGPNILLDDTLPTEVDRNLMMAVKDSIVQGFQWGAREGPLCDEPIRNVKFKIVDARIAPEPLHRGSGQMIPTARRVAYSAFLMATPRLMEPVYYVEIQTPIDCVTAIYTVLSRRRGHVTSDVPQPGTPAYIVKAFLPVIESFGFETDLRYHTQGQAFCLSVFDHWAIVPGDPLDKAIQLRPLEPAPIQHLAREFMVKTRRRKGMSEDVSGNKFFDEAMMVELAQQTGDLHLQMI
  binding: binds

B3: EMB2733/ESP3; DEAD-box like helicase (AT1G32490) (protein, UniProt Q8VY00 1-1044)
chain: MASNDLKTWVSDKLMMLLGYSQAAVVNYLIAMAKKTKSPTELVGELVDYGFSSSGDTRSFAEEIFARVPRKTAGVNLYQKHEAEAAMLVRKQKTYALLDADDDEDEVVVEKKSSVSESRKSDKGKKRFRKKSGQSDESDGEVAVREDSRHVRRKVSEEDDGSESEEERVRDQKEREELEQHLKDRDTARTRKLTEQTLSKKEKEEAVRRANALEKDDLYSLRKVSRQEYLKKREQKKLDELRDEIEDEQYLFGGEKLTETELREFRYKKELYDLVKKRTQDEDNVEEYRIPDAYDQEGGVDQEKRFSVAVQRYRDLDSTEKMNPFAEQEAWEDHQIGKATLKFGAKNKQASDDYQFVFEDQINFIKESVMAGENYEDAMDAKQKSQDLAEKTALEELQEVRRSLPIYTYRDQLLKAVEEHQVLVIVGDTGSGKTTQIPQYLHEAGYTKRGKVGCTQPRRVAAMSVAARVAQEMGVKLGHEVGYSIRFEDCTSDKTVLKYMTDGMLLRELLGEPDLASYSVVIVDEAHERTLSTDILFGLVKDIARFRPDLKLLISSATMDAEKFSDYFDTAPIFSFPGRRYPVEINYTSAPEADYMDAAIVTILTIHVREPLGDILVFFTGQEEIETAEEILKHRIRGLGTKIRELIICPIYANLPSELQAKIFEPTPEGARKVVLATNIAETSLTIDGIKYVVDPGFSKMKSYNPRTGMESLLITPISKASATQRAGRAGRTSPGKCYRLYTAFNYNNDLEENTVPEVQRTNLASVVLALKSLGIHDLINFDFMDPPPAEALVKSLELLFALGALNKLGELTKAGRRMAEFPLDPMLSKMIVVSDKYKCSDEIISIAAMLSIGGSIFYRPKDKQVHADNARMNFHTGNVGDHIALLKVYSSWKETNFSTQWCYENYIQVRSMKRARDIRDQLEGLLERVEIDISSNLNELDSVRKSIVAGFFPHTAKLQKNGSYRTVKHPQTVHIHPNSGLSQVLPRWVVYHELVLTSKEYMRQVTELKPEWLIELAPHYYQLKDVEDAASKKMPKGAGKAAM
  binding: binds

B4: PRL1/MAC2; WD-40 repeat family (protein, UniProt Q42384 1-486)
chain: MPAPTTEIEPIEAQSLKKLSLKSLKRSLELFSPVHGQFPPPDPEAKQIRLSHKMKVAFGGVEPVVSQPPRQPDRINEQPGPSNALSLAAPEGSKSTQKGATESAIVVGPTLLRPILPKGLNYTGSSGKSTTIIPANVSSYQRNLSTAALMERIPSRWPRPEWHAPWKNYRVIQGHLGWVRSVAFDPSNEWFCTGSADRTIKIWDVATGVLKLTLTGHIEQVRGLAVSNRHTYMFSAGDDKQVKCWDLEQNKVIRSYHGHLSGVYCLALHPTLDVLLTGGRDSVCRVWDIRTKMQIFALSGHDNTVCSVFTRPTDPQVVTGSHDTTIKFWDLRYGKTMSTLTHHKKSVRAMTLHPKENAFASASADNTKKFSLPKGEFCHNMLSQQKTIINAMAVNEDGVMVTGGDNGSIWFWDWKSGHSFQQSETIVQPGSLESEAGIYAACYDNTGSRLVTCEADKTIKMWKEDENATPETHPINFKPPKEIRRF
  binding: binds

B5: zinc finger (CCCH-type) family protein; RNA binding (AT1G07360) (protein, UniProt Q9LNV5 1-481)
chain: MAHRILRDHEADGWERSDFPIICESCLGDNPYVRMTKANYDKECKICTRPFTVFRWRPGRDARYKKTEICQTCCKLKNVCQVCLLDLEYGLPVQVRDTALNISTHDSIPKSDVNREYFAEEHDRKARAGLDYESSFGKMRPNDTILKLQRTTPYYKRNRAHVCSFFIRGECTRGAECPYRHEMPETGELSQQNIKDRYYGVNDPVAMKLLGKAGEMGTLESPDDESIKTLYVGGLNSRILEQDIRDQFYAHGEIESIRILADKACAFVTYTSREGAEKAAQELSNRLVINGQRLKLTWGRPKPDQDGANQQGGVAHSGLLPRAVISQQHNQPPPMQQYYMHPPPANQDKPYYPSMDPQRMGAVISTQEAGGSSTENNGASSSSYMMPPHQSYPPPPYGYMPSPYQQQYPPNHHHQPSPMQHYAPPPAAYPYPQQPGPGSRPAPSPTAVSAISPDSAPAGSGAPSGSSQQAPDVSTATGSSQ
  binding: binds

B6: chromatin protein family (AT1G77180) (protein, UniProt O80653 1-613)
chain: MKSLNDLPAPKSTTTTYYDHSNDAWFKNRVTESETVKSSSIKFKVVPAYLNRQGLRPKNPEDFGDGGAFPEIHLPQYPLLMGKNKSNKPGAKTLPVTVDAQGNVVFDAIVRQNENSRKIVYSQHKDIIPKFLKNEGDLGTVVDEEEELQKEIQETAEETKAAIEKIVNVRLSAAQPSNIARQSGDSQYIKYKPSQQSSAFNSGAKERIIRMVEMPVDPLDPPKFKHKRVPRASGSPPVPVMHSPPRPVTVKDQQDWKIPPCISNWKNPKGYTIPLDKRLAADGRGLQDVQINDNFAKLSEALYVAEQKAREAVSMRSKVQKEMVMKDKERKEQELRALAQKARSERTGAAMSMPVSSDRGRSESVDPRGDYDNYDQDRGREREREEPQETREEREKRIQREKIREERRRERERERRLDAKDAAMGKKSKITRDRDRDISEKVALGMASTGGKGGGEVMYDQRLFNQDKGMDSGFAADDQYNLYDKGLFTAQPTLSTLYKPKKDNDEEMYGNADEQLDKIKNTERFKPDKAFTGASERVGSKRDRPVEFEKEEEQDPFGLEKWVSDLKKGKKPLDKIGSGGTMRASGGGGSSSRDDDHGGSGRTKINFERSDRR
  binding: binds
